Laboratory results from paper doi:10.1101/2023.11.03.565550.
These are yes or no findings as the source states them, for the method shown. Some entries that bind do so weakly or less than the wild type. Tags and fused reporters may be left off the sequences shown.

Protein sequences, listed by entry. Tags and fused reporters are not part of them.
UniProt O04294: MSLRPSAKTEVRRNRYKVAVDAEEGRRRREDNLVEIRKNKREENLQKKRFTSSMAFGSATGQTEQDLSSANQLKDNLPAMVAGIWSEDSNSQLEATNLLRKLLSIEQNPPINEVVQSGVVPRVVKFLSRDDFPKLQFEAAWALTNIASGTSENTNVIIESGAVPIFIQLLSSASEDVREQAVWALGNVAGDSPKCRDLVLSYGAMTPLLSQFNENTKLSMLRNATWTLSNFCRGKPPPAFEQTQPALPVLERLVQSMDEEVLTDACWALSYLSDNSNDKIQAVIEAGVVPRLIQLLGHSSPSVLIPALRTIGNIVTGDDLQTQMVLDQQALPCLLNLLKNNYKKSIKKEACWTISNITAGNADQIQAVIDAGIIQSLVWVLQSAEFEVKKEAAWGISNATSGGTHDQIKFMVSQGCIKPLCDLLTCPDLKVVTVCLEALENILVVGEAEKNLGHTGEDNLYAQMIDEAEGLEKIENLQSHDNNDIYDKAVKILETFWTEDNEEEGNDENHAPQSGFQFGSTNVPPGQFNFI
UniProt O80480: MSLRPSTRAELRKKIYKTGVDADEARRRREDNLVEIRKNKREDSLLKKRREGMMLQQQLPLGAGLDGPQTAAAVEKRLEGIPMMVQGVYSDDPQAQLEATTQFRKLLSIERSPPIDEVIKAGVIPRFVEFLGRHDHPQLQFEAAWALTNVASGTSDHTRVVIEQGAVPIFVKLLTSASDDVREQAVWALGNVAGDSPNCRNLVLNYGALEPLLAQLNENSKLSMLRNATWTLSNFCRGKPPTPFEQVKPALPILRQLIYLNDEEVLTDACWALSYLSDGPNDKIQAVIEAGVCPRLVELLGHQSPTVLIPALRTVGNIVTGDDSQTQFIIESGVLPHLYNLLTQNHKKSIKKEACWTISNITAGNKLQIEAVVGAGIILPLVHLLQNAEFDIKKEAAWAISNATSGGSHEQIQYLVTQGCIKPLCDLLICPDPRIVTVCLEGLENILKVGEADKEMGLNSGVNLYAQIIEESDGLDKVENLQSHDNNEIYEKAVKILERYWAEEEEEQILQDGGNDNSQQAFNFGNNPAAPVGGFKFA
UniProt Q96321: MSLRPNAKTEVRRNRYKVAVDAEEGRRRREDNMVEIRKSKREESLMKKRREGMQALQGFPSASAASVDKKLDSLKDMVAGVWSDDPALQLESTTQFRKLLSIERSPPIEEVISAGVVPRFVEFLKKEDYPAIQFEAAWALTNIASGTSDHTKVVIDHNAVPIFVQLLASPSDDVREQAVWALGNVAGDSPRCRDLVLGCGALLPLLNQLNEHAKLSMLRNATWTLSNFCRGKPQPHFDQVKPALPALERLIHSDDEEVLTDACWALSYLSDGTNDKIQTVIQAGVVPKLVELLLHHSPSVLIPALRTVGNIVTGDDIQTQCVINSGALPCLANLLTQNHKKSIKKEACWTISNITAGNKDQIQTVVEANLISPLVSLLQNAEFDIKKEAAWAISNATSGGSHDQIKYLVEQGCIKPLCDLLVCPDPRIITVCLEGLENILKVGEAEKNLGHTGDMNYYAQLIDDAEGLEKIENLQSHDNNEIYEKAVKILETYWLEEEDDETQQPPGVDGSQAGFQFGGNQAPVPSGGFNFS
UniProt F4JL11: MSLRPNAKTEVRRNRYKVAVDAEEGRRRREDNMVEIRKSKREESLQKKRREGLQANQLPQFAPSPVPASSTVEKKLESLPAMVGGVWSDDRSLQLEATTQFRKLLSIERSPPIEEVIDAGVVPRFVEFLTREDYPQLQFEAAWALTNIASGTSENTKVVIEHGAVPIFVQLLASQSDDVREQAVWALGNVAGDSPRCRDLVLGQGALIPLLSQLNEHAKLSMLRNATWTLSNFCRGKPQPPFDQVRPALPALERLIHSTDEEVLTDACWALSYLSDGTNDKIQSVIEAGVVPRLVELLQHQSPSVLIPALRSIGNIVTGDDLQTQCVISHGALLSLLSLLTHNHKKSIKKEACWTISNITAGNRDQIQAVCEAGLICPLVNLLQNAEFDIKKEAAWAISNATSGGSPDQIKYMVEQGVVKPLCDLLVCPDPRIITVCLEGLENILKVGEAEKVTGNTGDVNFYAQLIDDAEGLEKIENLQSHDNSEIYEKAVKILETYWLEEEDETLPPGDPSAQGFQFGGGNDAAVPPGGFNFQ

What was measured:
[1] = molecular target: T1, gl2^ΔNLS bait of the split-ubiquitin cytosolic yeast two-hybrid assay (OST4 anchor fusion) (Arabidopsis) (UniProt P46607); assay: two-hybrid
T1 sequence: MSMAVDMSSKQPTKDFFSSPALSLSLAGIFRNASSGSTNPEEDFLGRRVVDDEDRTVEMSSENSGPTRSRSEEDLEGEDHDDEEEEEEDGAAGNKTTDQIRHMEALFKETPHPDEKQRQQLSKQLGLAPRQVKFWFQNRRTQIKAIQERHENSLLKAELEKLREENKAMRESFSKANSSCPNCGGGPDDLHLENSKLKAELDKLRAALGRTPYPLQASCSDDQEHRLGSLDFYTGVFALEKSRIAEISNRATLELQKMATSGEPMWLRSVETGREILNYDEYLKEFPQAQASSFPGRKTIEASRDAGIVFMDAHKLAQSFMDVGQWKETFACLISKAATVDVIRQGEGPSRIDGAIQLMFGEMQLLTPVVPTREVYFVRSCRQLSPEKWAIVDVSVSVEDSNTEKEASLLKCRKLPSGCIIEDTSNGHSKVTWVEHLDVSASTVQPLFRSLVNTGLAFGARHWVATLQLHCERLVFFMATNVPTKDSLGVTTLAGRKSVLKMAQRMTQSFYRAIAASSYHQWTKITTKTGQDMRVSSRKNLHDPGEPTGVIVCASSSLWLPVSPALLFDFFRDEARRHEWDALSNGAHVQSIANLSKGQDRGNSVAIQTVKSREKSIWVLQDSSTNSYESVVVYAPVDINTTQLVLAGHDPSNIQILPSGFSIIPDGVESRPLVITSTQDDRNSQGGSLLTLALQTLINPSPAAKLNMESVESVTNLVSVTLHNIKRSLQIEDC

[2] = molecular target: T2, GL2 bait of the split-ubiquitin cytosolic yeast two-hybrid assay (OST4 anchor fusion) (Arabidopsis) (UniProt P46607); assay: two-hybrid
T2 sequence: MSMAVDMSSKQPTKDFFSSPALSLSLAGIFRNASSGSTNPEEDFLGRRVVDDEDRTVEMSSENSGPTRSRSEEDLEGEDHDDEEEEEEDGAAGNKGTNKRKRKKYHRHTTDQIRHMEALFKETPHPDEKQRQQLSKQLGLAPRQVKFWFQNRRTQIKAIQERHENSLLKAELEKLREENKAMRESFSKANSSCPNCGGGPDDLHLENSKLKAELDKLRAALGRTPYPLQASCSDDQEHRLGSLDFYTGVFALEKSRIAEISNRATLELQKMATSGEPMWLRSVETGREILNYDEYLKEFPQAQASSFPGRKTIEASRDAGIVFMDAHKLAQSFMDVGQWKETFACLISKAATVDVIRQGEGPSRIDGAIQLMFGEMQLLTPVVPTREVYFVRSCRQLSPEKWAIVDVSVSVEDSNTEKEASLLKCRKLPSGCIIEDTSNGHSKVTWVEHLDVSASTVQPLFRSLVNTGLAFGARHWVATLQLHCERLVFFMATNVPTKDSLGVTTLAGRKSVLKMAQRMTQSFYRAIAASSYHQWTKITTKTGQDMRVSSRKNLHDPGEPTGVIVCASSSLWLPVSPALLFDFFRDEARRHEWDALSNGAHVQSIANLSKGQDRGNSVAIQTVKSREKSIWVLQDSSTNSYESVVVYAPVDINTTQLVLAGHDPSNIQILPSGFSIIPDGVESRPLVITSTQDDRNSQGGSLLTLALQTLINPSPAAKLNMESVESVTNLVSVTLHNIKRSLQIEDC

Substance	binding [1]	binding [2]
Importin α isoform IMPα-3, cytoY2H prey (from UniProt O04294 1-531)	no binding	binds weakly
Importin α isoform IMPα-4, cytoY2H prey (from UniProt O80480 1-538)	no binding	binds weakly
Importin α isoform IMPα-1, cytoY2H prey (from UniProt Q96321 1-532)	no binding	binds weakly
Importin α isoform IMPα-2, cytoY2H prey (from UniProt F4JL11 1-535)	no binding	binds weakly
